Measured values from article PMC4177551.
Like-named read-outs stand apart in the source and are kept apart here. Results are given in words; binding and its absence hold for the method and conditions named. Binding seen in cells or lysates may run through a third protein. These calls come from enrichment with a bait or labelling near it, and not all partners need be listed.

Chains of the proteins cited; added tags and fusions are not shown. Residues count along the entry.
UniProt Q13123: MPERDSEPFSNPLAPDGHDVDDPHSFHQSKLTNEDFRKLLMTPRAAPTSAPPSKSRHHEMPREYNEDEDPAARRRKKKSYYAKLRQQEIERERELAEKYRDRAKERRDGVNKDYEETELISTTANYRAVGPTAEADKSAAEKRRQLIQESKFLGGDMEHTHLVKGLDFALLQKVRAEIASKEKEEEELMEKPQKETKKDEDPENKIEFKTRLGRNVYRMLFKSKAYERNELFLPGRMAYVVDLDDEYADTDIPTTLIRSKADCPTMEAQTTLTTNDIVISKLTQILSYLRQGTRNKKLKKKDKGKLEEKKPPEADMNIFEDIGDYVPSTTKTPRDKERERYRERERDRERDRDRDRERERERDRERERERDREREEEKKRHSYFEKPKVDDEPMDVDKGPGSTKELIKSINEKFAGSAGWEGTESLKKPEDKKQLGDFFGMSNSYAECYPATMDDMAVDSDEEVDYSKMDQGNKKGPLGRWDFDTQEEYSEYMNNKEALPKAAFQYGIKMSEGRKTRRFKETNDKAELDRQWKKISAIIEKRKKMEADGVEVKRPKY
UniProt P0DMV8: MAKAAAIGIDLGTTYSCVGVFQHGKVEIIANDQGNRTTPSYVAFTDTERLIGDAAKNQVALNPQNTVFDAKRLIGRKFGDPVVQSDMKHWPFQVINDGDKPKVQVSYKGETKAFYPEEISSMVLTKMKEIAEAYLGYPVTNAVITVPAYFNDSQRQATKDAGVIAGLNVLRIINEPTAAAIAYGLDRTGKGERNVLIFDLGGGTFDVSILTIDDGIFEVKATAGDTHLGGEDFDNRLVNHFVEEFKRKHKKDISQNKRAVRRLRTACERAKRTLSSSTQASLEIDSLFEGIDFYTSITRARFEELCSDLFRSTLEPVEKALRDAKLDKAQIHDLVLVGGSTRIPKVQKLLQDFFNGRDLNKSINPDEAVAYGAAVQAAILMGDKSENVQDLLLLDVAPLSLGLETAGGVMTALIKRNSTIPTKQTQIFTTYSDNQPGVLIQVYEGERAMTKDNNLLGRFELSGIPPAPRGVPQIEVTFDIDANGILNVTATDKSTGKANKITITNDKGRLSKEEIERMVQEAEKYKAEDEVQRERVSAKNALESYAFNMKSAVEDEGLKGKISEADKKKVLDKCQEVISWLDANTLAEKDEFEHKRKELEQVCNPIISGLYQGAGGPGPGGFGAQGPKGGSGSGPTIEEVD
UniProt P07942, residues 22-1786: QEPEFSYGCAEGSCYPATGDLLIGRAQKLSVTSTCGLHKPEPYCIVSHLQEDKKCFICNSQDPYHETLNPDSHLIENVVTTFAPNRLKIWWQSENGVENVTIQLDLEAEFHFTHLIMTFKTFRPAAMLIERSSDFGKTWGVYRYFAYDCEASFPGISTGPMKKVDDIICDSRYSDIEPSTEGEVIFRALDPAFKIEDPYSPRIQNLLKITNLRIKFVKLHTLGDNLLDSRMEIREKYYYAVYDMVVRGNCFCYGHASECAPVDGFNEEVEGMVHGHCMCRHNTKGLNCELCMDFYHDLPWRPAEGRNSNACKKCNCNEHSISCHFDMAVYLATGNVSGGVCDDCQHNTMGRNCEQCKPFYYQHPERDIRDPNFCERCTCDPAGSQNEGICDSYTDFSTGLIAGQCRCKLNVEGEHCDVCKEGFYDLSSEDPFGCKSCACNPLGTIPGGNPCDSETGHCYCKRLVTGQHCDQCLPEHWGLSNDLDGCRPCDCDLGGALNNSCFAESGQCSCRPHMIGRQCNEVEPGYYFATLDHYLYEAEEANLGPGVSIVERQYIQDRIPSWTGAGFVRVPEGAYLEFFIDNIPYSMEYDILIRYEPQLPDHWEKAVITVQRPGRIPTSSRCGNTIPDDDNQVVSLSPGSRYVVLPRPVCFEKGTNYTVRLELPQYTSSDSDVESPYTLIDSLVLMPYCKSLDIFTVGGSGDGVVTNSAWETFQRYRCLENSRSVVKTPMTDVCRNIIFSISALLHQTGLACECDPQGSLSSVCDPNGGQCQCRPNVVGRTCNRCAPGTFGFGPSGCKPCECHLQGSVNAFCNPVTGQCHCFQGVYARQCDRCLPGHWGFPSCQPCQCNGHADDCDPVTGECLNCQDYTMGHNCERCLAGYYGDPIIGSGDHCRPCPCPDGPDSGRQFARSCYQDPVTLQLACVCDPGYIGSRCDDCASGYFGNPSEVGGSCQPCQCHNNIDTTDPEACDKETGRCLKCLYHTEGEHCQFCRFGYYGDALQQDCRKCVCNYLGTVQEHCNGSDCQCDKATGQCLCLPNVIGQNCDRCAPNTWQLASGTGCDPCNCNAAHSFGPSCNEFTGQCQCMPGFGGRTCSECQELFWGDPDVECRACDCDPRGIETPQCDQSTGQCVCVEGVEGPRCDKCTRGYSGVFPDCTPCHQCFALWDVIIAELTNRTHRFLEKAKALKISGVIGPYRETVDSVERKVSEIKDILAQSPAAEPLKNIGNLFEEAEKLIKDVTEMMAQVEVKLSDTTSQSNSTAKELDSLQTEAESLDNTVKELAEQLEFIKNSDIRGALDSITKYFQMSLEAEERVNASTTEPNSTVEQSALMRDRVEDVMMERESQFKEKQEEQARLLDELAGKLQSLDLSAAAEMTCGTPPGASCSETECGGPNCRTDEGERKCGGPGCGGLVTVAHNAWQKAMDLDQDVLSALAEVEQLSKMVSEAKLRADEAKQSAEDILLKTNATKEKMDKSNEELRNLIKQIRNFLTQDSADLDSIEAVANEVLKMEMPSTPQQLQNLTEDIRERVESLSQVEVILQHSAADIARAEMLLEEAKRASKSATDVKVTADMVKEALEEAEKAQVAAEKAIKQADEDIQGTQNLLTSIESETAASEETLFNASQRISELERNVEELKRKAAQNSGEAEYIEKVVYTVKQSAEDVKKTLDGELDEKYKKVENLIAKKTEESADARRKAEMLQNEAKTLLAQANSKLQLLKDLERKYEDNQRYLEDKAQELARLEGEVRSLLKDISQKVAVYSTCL
UniProt P56703, residues 22-355: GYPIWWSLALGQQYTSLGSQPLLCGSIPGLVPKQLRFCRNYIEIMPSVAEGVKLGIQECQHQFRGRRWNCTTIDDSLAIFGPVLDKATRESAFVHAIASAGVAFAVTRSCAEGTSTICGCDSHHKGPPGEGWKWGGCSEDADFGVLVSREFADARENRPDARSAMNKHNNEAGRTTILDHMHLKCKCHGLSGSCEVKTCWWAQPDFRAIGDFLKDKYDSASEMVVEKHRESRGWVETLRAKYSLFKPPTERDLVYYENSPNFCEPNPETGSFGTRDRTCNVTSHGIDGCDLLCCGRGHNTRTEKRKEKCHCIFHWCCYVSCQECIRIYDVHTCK
UniProt O43143: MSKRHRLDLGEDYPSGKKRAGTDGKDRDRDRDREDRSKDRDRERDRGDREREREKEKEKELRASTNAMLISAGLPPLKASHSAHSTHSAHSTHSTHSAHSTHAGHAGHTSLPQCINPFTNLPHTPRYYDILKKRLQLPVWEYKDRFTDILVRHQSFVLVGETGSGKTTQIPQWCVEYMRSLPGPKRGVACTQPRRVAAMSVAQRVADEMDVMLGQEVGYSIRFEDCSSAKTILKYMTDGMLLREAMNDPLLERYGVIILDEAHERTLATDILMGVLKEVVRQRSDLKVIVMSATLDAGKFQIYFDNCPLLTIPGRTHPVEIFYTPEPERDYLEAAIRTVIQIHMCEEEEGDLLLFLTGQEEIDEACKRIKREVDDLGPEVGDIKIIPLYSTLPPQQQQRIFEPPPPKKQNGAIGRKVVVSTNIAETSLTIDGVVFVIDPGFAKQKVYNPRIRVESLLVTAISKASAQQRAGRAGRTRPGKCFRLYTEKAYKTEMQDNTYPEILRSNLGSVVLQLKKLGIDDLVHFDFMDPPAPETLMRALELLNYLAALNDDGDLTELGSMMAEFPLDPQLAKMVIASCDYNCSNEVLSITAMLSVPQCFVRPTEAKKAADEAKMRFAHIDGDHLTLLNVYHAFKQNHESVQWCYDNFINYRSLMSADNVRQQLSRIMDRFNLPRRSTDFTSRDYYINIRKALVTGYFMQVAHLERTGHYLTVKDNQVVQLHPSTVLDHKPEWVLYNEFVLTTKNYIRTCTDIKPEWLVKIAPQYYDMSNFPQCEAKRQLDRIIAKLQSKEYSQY

Assays:
[1] = biological target: His6-IK (Protein RED) (human) (UniProt Q13123); assay: affinity purification with mass spectrometry; two steps: His6-IK from lysate of transfected HEK293K cells held on Ni2+-IDA-agarose (4°C overnight), eluted with 300 mM imidazole, then immunoprecipitated with anti-IK antibody (control IgG beside it) on protein G-agarose; SDS-PAGE, Coomassie Blue, gel areas analysed by mass spectrometry
[2] = biological target: His6-IK (Protein RED) (human) (UniProt Q13123); assay: as above; remark: listed apart in the source

Molecule: Heat shock 70 kDa protein 1A/1B (from UniProt P0DMV8 1-641)
- binding [1]: binds

Molecule: Laminin subunit beta-1 (from UniProt P07942 22-1786)
- binding [1]: binds

Molecule: Proto-oncogene Wnt-3 (from UniProt P56703 22-355)
- binding [1]: binds

Molecule: Putative pre-mRNA-splicing factor ATP-dependent RNA helicase DHX15 (from UniProt O43143 1-795)
- binding [1]: binds

B1: Zinc finger protein 518B (protein, UniProt Q9C0D4 1-1074)
chain: MKDIGQQLYTTHLNGGHNSLTMSPKQPDANGAPRPNRQEAQTLLYQGSEAEAAMMTIATCAKCKSVHKISLQDLQKGTGKDGMYVCFQCSLGAAPPNFHFVSNNSSATHVGNKTENFSSSVNSKFKVRNFKPGKYYCDKCRFSTKDPLQYKKHTLQHEEIKFICSHCSYISYTKGEFQRHLVKHTGIFPYQCEYCDYGAIRNDYIVKHTKRVHERAGAKRPVKAVAKLEPKRTGTSKQNPELLKASNPRTTFQNKWSDQLSGFSLHANKDKMHNIMLLPEPKEYQKDVVCIPNKMTLSEPNEVNLFENKNVEVEVLSPAKEPVQPGMPLTVVAPAELVVPANCLAQLIDVKVVNGTQQLVLKLFPLEENNCLEAGRDNGGNSERMVKEKGSNEQEKVLSAEKTKSLTVDGNVGKLVGIDSFQPSVQKQLKNVKWVRSYDFIMPNSSVHNNGKSFINSETIEDFQKKNNLYPHRTAFPSVALKGHSLASVFKNSVLRSLGAASNPFPYKAAVCFAESGRNLHSSSQQLLPFAASPATCSFSGEKGLLPVSENDLESTSKVNIPVKVVSSNRKQEDNQTEEHKAVSTVGQISSQHKSEYLHINITGEDRSQQPGDKPLELKNSERTNNTNDGPVISSVFSLSSGSENVPEGIKWNSSTSKIKSIELLRRKIAQLIESCGKPSSLASNSAHRRSVGQASKGTSKATSEGIQEINVSLTGLGHSTGTLQKPPNDGGITGNRQLTHQQIYPHFADGSNRKTKSRVARKAHVATPVLIPKGAVLRVLNSSENAHIIEATCEAPVSIPCSERQLIKPVPFCPVRQADSDLQPLRSERGPIDMSPNIETPLRPKLRKESAVCSTIHRKTGLLYGQQGSSELNKQGRLLSRSLSISRNKTKQVHLSRKKNKIQAEPSRCLKDPSIFQVARQLRLIAAKPDQLIKCPRRNQPVIVLNHPDVDSPEVTNVMKVINKYKGNVLKVVLSERTRCQLGIRRHHVRLTYQNAEEASQIKRQMMLKMKLKKVHKNNYQVVDSLPDDSSQCVFKCWFCGRLYEDQEEWMSHGQRHLIEATRDWDVLSSKGK
- binding [2]: binds

B2: Zinc finger and SCAN domain-containing protein 5B (protein, UniProt A6NJL1 1-495)
chain: MAANWTLSWGQGGPCNSPGSDTPRSVASPETQLGNHDRNPETWHMNFRMFSCPEESDPIQALRKLTELCHLWLRPDLHTKEQILDMLVMEQFMISMPQELQVLVKVNGVQSCKDLEDLLRNNRRPKKWSIVNLLGKEYLMLNSDVEMAEAPASVRDDPRDVSSQWASSVNQMHPGTGQARREQQILPRVAALSRRQGEDFLLHKSIDVTGDPNSPRPKQTLEKDLKENREENPGLSSPEPQLPKSPNLVRAKEGKEPQKRASVENVDADTPSACVVEREALTHSGNRGDALNLSSPKRSKPDASSISQEEPQGEATPVGNRESPGQAEINPVHSPGPAGPVSHPDGQEAKALPPFACDVCNKSFKYFSQLSIHRRSHTGDRPFQCDLCRKRFLQPSDLRVHQRVHTGERPYMCDVCQKRFAHESTLQGHKRIHTGERPFKCKYCSKVFSHKGNLNVHQRTHSGEKPYKCPTCQKAFRQLGTFKRHLKTHRETTSQ
- binding [2]: binds

B3: Isoform 1 of Interleukin-25 (protein, UniProt Q9H293 33-177)
chain: YSHWPSCCPSKGQDTSEELLRWSTVPVPPLEPARPNRHPESCRASEDGPLNSRAISPWRYELDRDLNRLPQDLYHARCLCPHCVSLQTGSHMDPRGNSELLYHNQTVFYRRPCHGEKGTHKGYCLERRLYRVSLACVCVRPRVMG
- binding [2]: binds

B4: Isoform Long of 52KD repressor of the inhibitor of the protein kinase (protein, UniProt O43422 1-761)
chain: MPNFCAAPNCTRKSTQSDLAFFRFPRDPARCQKWVENCRRADLEDKTPDQLNKHYRLCAKHFETSMICRTSPYRTVLRDNAIPTIFDLTSHLNNPHSRHRKRIKELSEDEIRTLKQKKIDETSEQEQKHKETNNSNAQNPSEEEGEGQDEDILPLTLEEKENKEYLKSLFEILILMGKQNIPLDGHEADEIPEGLFTPDNFQALLECRINSGEEVLRKRFETTAVNTLFCSKTQQRQMLEICESCIREETLREVRDSHFFSIITDDVVDIAGEEHLPVLVRFVDESHNLREEFIGFLPYEADAEILAVKFHTMITEKWGLNMEYCRGQAYIVSSGFSSKMKVVASRLLEKYPQAIYTLCSSCALNMWLAKSVPVMGVSVALGTIEEVCSFFHRSPQLLLELDNVISVLFQNSKERGKELKEICHSQWTGRHDAFEILVELLQALVLCLDGINSDTNIRWNNYIAGRAFVLCSAVSDFDFIVTIVVLKNVLSFTRAFGKNLQGQTSDVFFAAGSLTAVLHSLNEVMENIEVYHEFWFEEATNLATKLDIQMKLPGKFRRAHQGNLESQLTSESYYKETLSVPTVEHIIQELKDIFSEQHLKALKCLSLVPSVMGQLKFNTSEEHHADMYRSDLPNPDTLSAELHCWRIKWKHRGKDIELPSTIYEALHLPDIKFFPNVYALLKVLCILPVMKVENERYENGRKRLKAYLRNTLTDQRSSNLALLNINFDIKHDLDLMVDTYIKLYTSKSELPTDNSETVENT
- binding [2]: binds
